{"source": "PubChem BioAssay AID504791 – Drosophila RNAi Screening Center – 2011", "assay": "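Genes whose knock-down strengthens or weakens small-RNA reporter silencing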 (primary screen)", "cell system": "Drosophila S2-derived reporter cells", "reagent": "long dsRNA against Drosophila genes, about 150-250 ng dsRNA per well (siRNA assay); about 80-120 ng (miRNA assay)", "timing": "about 5 days (siRNA assay); about 4 days (miRNA assay)", "conditions": "copper sulfate induction of reporters: 25 µM (siRNA assay); 200 mM stated (miRNA assay), 1-2 days before reading", "measured": "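Dual luciferase assay: Renilla to firefly signal ratio in each well, scaled to the mean ratio of its plate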", "units": "stable assay Renilla, run 1 in luminescence; stable assay firefly, run 1 in luminescence", "active means": "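a well was a first-pass pick when its plate-scaled ratio rose above 1.5 (siRNA assay) or 1.6 (miRNA assay), or dropped below 0.6; a gene counted only if two separate dsRNAs agreed on retest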", "note": "The screen tested about 23,000 reagents; below is a random part of those that have a named target and a result. Over the whole deposit, 199 (0.86%) are marked active. 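Plate-scaled ratios behind the calls are not deposited; printed light signals are raw; many rows marked increased or decreased are still called inactive.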 No sequences are given here. The record does not give: the direction of the score."}
{"target": "mus304 (GeneID 40003)", "amplicon": "DRSC11372", "stable assay Renilla, run 1": 7611, "stable assay firefly, run 1": 3.12e5, "Outcome": "inactive"}
{"target": "Ssb-c31a (GeneID 34120)", "amplicon": "DRSC03443", "stable assay Renilla, run 1": 6548, "stable assay firefly, run 1": 3.63e5, "Outcome": "inactive"}
{"target": "Hipk (GeneID 38070)", "amplicon": "DRSC07885", "stable assay Renilla, run 1": 4979, "stable assay firefly, run 1": 3.49e5, "Outcome": "inactive"}
{"target": "Hipk (GeneID 38070)", "amplicon": "DRSC08507", "stable siRNA reporter change": "reporter ratio lowered past the hit cutoff", "miRNA reporter change": "reporter ratio lowered past the hit cutoff", "stable assay Renilla, run 1": 4468, "stable assay firefly, run 1": 3.19e5, "Outcome": "inactive"}
{"target": "Hipk (GeneID 38070)", "amplicon": "DRSC23155", "stable assay Renilla, run 1": 4407, "stable assay firefly, run 1": 2.94e5, "Outcome": "inactive"}
{"target": "CG18636 (GeneID 2768923)", "amplicon": "DRSC02685", "stable assay Renilla, run 1": 3868, "stable assay firefly, run 1": 2.66e5, "Outcome": "inactive"}
{"target": "Top1 (GeneID 32458)", "amplicon": "DRSC20295", "stable assay Renilla, run 1": 5180, "stable assay firefly, run 1": 4.23e5, "Outcome": "inactive"}
{"target": "Dgat2 (GeneID 35719)", "amplicon": "DRSC06803", "stable assay Renilla, run 1": 7319, "stable assay firefly, run 1": 4.06e5, "Outcome": "inactive"}
{"target": "Sox21a (GeneID 39567)", "amplicon": "DRSC10819", "stable assay Renilla, run 1": 7190, "stable assay firefly, run 1": 4.00e5, "Outcome": "inactive"}
{"target": "Hsp70Bc (GeneID 48583)", "amplicon": "DRSC16053", "miRNA reporter change": "reporter ratio raised past the hit cutoff", "stable assay Renilla, run 1": 6322, "stable assay firefly, run 1": 4.10e5, "Outcome": "inactive"}
{"target": "CG31871 (GeneID 34463)", "amplicon": "DRSC02567", "stable assay Renilla, run 1": 7655, "stable assay firefly, run 1": 5.15e5, "Outcome": "inactive"}
{"target": "CG31871 (GeneID 34463)", "amplicon": "DRSC02571", "stable assay Renilla, run 1": 6816, "stable assay firefly, run 1": 4.26e5, "Outcome": "inactive"}
